{"source": "patent US9771430B2", "about": "“Method of treating a metabolic disorder induced by obesity in a subject in need thereof by administering MK2/3 inhibitors” (THE TRUSTEES OF COLUMBIA UNIVERSITY IN THE CITY OF NEW YORK, priority 2011, dated 2017)", "origin": "cited, not measured here", "tested_on": "IL-1 and TNF-α production", "details": "read-out: IC50 IL-1 and TNF-α production; LPS-stimulated human monocytes and THP-1; cited from earlier work", "note": "pIC50: −log10 of the molar value.", "data": [{"compound": "C[S+]([O-])c1ccc(-c2nc(-c3ccncc3)c(-c3ccc(F)cc3)[nH]2)cc1", "note": "(stereo not shown) [SB203580]", "values": [{"measurement": "pIC50", "value": "7.00 to 7.30"}]}]}
